Assay results as given in patent US20150071918A1, “PEPTIDES FOR THE TREATMENT OF CANCER” (H. LEE MOFFITT CANCER CENTER AND RESEARCH INSTITUTE, INC., priority 2012, published 2015).
At least one peptide structure holds a part that was inferred or is arguable (an end, a ring closure or a residue).

Legend:
Assay type in all cases: cell-based, human
H929 myeloma cells = test system: H929 myeloma cells
Procedure: H929 cells were treated for 24 hours with varying concentrations of peptide. Cell death was measured by Topro-3 staining and FACS analysis. The IC50 values were obtained from linear regression analysis and an average value was obtained from 3 independent experiments.
Table 4 legend: Structure activity relationship in H929 myeloma cells of cyclic INTEGRIN INTERACTION INHIBITORS derivatives. The minimal bioactive core sequence of INTEGRIN INTERACTION INHIBITORS WSVVM (SEQ ID NO:33) was cyclized using 2 novel reduced amide bond beta turn promoters and KLKLK (SEQ ID NO:34) as the non-recognition sequence. H929 cells were treated with varying concentrations of the indicated peptide for 24 h. Cell viability was determined using Topro-3 staining and FACS analysis after drug treatment. IC50 values were generated from linear regressions generated from the dose response curves (n=mean of 3 independent experiments).
A colony forming assay was used to compare induced cell death in H929 multiple myeloma cells. Cells were treated with integrin interaction inhibitors, shown in FIG. 5 and Table 4, and cell death was measured following 24 hour peptide treatment by TOPRO-3 staining and FACS analysis.

[1] = test system: CD34+ hematopoietic progenitor cells; assay: Colony forming assay in normal CD34+ hematopoietic progenitor cells; settings: 2 hrs treatment, 12.5 and 50 μg/ml, colonies counted day 12
H929 cells = assay: Colony forming assay in H929 cells; settings: 12.5-50 μg/ml
[2] = test system: CD138 positive (myeloma) and negative cells; assay: Cell death in CD138 positive (myeloma) and negative cells from BM aspirate, Annexin V/PI and FACS; settings: 50 μg/ml, 24 h, CD138 positive vs negative cells

Compound: CC[C@@H](C)[C@@H](NC(=O)[C@H](N)CCCCN)C(=O)N[C@H](CCCCN)C(=O)N[C@H](CCSC)C(=O)N[C@@H](C(=O)N[C@@H](C(=O)N[C@H](CO)C(=O)N[C@H](Cc1c[nH]c2ccccc12)C(=O)N[C@H](CCCCN)C(=O)NCC(=O)O)[C@H](C)CC)C(C)C [HYD1]
- IC50 (H929 myeloma cells): 33 µM
- colony formation of normal CD34 positive cells [1]: did not inhibit differentiation or colony formation of CD34 positive cells
- inhibition of colony growth of H929 cells (H929 cells): H929 cells are more sensitive to HYD1 induced inhibition of colony growth compared to normal CD34 positive cells
- cell death in primary myeloma specimen [2]: induces preferential cell death in MM cells
